Assay [1] has as its target T1, PAM68 (Photosynthesis Affected Mutant68) (Arabidopsis thaliana (endogenous in thylakoids)) (UniProt O49668).
T1 sequence: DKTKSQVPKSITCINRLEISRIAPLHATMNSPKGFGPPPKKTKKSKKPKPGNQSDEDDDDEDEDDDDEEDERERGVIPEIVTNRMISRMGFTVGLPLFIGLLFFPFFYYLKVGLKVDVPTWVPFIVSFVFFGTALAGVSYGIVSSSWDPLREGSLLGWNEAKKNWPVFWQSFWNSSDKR
The assay is described as follows: co-IP; wild-type thylakoids solubilised with 1% dodecyl-β-D-maltoside in co-IP buffer (50 mM Tris-HCl pH 8.0, 100 mM NaCl, 1 mM EDTA, 0.1% Igepal CA-630), incubated overnight at 4 °C with FPB1, PAM68 or YCF4 antibody or preimmune serum coupled to CNBr-activated agarose; immunoblot.

Assay [2] deals with T1, PAM68 (Photosynthesis Affected Mutant68) (Arabidopsis thaliana (endogenous in thylakoids)). Nature of the assay: cross-linking + co-IP; thylakoids crosslinked with 1.5 mM DSP for 2 h on ice, solubilised in RIPA buffer (1% Triton X-100, 1% sodium deoxycholate, 0.1% SDS), immunoprecipitated with antibodies coupled to CNBr-activated agarose; cross-links opened with β-mercaptoethanol; immunoblot. A general note: A western blot detects proteins with antibodies after separation by electrophoresis.

Assay [3] has as its target T2, PAM68-YFP^N (Arabidopsis thaliana) (UniProt O49668).
T2 sequence: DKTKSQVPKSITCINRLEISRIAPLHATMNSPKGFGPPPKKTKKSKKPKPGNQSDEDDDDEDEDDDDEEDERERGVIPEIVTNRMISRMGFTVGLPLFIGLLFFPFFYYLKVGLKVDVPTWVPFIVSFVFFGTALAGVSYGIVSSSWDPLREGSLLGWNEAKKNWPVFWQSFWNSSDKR
The assay is described as follows: split reporter; BiFC with YFP^N and YFP^C fusions cotransformed into Arabidopsis protoplasts; confocal microscopy.

For assay [4], the target named is T3, Alb3-Cub (Arabidopsis thaliana) (UniProt Q8LBP4).
T3 sequence: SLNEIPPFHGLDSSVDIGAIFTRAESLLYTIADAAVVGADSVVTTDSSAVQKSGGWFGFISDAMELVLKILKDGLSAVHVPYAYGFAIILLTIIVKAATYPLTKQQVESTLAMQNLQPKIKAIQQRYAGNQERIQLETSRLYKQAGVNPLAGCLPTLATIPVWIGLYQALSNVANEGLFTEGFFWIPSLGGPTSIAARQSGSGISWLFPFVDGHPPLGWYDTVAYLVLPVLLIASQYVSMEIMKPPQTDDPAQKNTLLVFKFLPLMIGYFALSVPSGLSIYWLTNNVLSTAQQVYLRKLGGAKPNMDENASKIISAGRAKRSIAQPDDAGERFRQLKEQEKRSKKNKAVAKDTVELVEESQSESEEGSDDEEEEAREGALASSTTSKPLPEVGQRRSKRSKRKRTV
The assay is described as follows: two-hybrid; split-ubiquitin yeast two-hybrid; baits with Cub-LexA-VP16, preys with NubG; yeast NMY32, growth on SD-leu-trp-his-ade for 2-4 days at 28 °C.

Assay [5] has as its target T4, SecY1-Cub (UniProt Q38885).
T4 sequence: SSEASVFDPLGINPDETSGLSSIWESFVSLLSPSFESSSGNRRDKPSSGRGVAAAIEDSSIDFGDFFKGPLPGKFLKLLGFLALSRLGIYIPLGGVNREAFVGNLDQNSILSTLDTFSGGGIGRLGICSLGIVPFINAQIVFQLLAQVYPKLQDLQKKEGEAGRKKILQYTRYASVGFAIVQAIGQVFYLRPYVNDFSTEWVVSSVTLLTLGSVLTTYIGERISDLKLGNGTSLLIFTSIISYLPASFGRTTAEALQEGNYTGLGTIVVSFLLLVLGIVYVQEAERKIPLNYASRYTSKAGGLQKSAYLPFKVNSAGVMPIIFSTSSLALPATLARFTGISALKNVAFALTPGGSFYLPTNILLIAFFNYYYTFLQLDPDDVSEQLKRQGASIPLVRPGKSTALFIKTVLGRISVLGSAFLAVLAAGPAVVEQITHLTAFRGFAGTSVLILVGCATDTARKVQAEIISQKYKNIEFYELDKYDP
Described as above.

Assay [6] concerns the target FPB1-YFP^N (Arabidopsis thaliana). The assay is described as follows: split reporter; BiFC with YFP^N and YFP^C fusions cotransformed into Arabidopsis protoplasts; confocal microscopy.
The target in assay [7] is FPB1 (Facilitator of PsbB biogenesis1) (Arabidopsis thaliana (endogenous in thylakoids)). The assay is described as follows: co-IP; wild-type thylakoids solubilised with 1% dodecyl-β-D-maltoside in co-IP buffer (50 mM Tris-HCl pH 8.0, 100 mM NaCl, 1 mM EDTA, 0.1% Igepal CA-630), incubated overnight at 4 °C with FPB1, PAM68 or YCF4 antibody or preimmune serum coupled to CNBr-activated agarose; immunoblot.

The target is the same in assay [8]. Nature of the assay: cross-linking + co-IP; thylakoids crosslinked with 1.5 mM DSP for 2 h on ice, solubilised in RIPA buffer (1% Triton X-100, 1% sodium deoxycholate, 0.1% SDS), immunoprecipitated with antibodies coupled to CNBr-activated agarose; cross-links opened with β-mercaptoethanol; immunoblot.

Among the data in publication PMC11006888 are binding values, retold here.

No constants are given. Whether binding was seen depends on the method and setting. Binding calls can cover weak binding; strength is not graded here. For some of these results: In cells and extracts the contact can be indirect. For some of these results: Tags and fused reporters may be left off the sequences shown.

For the molecule FPB1 (Facilitator of PsbB biogenesis1), the values for the binding entry in assay [1] and in assay [2] were “binds weakly” and “binds”, respectively. Consider FPB1-YFP^C (Arabidopsis thaliana), for which the binding entry in assay [3] is listed as “binds”. As for NubG-FPB1 (Arabidopsis thaliana), the binding entry in assay [4] and in assay [5] was “binds” in each case.

B1: RbcS-TP-YFP^C-SecY1 (protein, UniProt Q38885 68-551)
chain: SSEASVFDPLGINPDETSGLSSIWESFVSLLSPSFESSSGNRRDKPSSGRGVAAAIEDSSIDFGDFFKGPLPGKFLKLLGFLALSRLGIYIPLGGVNREAFVGNLDQNSILSTLDTFSGGGIGRLGICSLGIVPFINAQIVFQLLAQVYPKLQDLQKKEGEAGRKKILQYTRYASVGFAIVQAIGQVFYLRPYVNDFSTEWVVSSVTLLTLGSVLTTYIGERISDLKLGNGTSLLIFTSIISYLPASFGRTTAEALQEGNYTGLGTIVVSFLLLVLGIVYVQEAERKIPLNYASRYTSKAGGLQKSAYLPFKVNSAGVMPIIFSTSSLALPATLARFTGISALKNVAFALTPGGSFYLPTNILLIAFFNYYYTFLQLDPDDVSEQLKRQGASIPLVRPGKSTALFIKTVLGRISVLGSAFLAVLAAGPAVVEQITHLTAFRGFAGTSVLILVGCATDTARKVQAEIISQKYKNIEFYELDKYDP
Consider B1, for which the binding result in assay [6] is “no binding”.

B2: Alb3 (protein, UniProt Q8LBP4 57-462)
chain: SLNEIPPFHGLDSSVDIGAIFTRAESLLYTIADAAVVGADSVVTTDSSAVQKSGGWFGFISDAMELVLKILKDGLSAVHVPYAYGFAIILLTIIVKAATYPLTKQQVESTLAMQNLQPKIKAIQQRYAGNQERIQLETSRLYKQAGVNPLAGCLPTLATIPVWIGLYQALSNVANEGLFTEGFFWIPSLGGPTSIAARQSGSGISWLFPFVDGHPPLGWYDTVAYLVLPVLLIASQYVSMEIMKPPQTDDPAQKNTLLVFKFLPLMIGYFALSVPSGLSIYWLTNNVLSTAQQVYLRKLGGAKPNMDENASKIISAGRAKRSIAQPDDAGERFRQLKEQEKRSKKNKAVAKDTVELVEESQSESEEGSDDEEEEAREGALASSTTSKPLPEVGQRRSKRSKRKRTV
Consider B2, for which the binding entry in assay [7] and in assay [8] was “binds” in each case.

B3: Alb3-YFP^C (protein, UniProt Q8LBP4 57-462)
chain: SLNEIPPFHGLDSSVDIGAIFTRAESLLYTIADAAVVGADSVVTTDSSAVQKSGGWFGFISDAMELVLKILKDGLSAVHVPYAYGFAIILLTIIVKAATYPLTKQQVESTLAMQNLQPKIKAIQQRYAGNQERIQLETSRLYKQAGVNPLAGCLPTLATIPVWIGLYQALSNVANEGLFTEGFFWIPSLGGPTSIAARQSGSGISWLFPFVDGHPPLGWYDTVAYLVLPVLLIASQYVSMEIMKPPQTDDPAQKNTLLVFKFLPLMIGYFALSVPSGLSIYWLTNNVLSTAQQVYLRKLGGAKPNMDENASKIISAGRAKRSIAQPDDAGERFRQLKEQEKRSKKNKAVAKDTVELVEESQSESEEGSDDEEEEAREGALASSTTSKPLPEVGQRRSKRSKRKRTV
For B3, the binding result in assay [6] is “binds”.

B4: PAM68 (Photosynthesis Affected Mutant68) (protein, UniProt O49668 36-214)
chain: DKTKSQVPKSITCINRLEISRIAPLHATMNSPKGFGPPPKKTKKSKKPKPGNQSDEDDDDEDEDDDDEEDERERGVIPEIVTNRMISRMGFTVGLPLFIGLLFFPFFYYLKVGLKVDVPTWVPFIVSFVFFGTALAGVSYGIVSSSWDPLREGSLLGWNEAKKNWPVFWQSFWNSSDKR
Take B4: the binding entry in assay [7] is on record as “binds weakly”; in assay [8] it was “binds”.

B5: PAM68-YFP^C (protein, UniProt O49668 36-214)
chain: DKTKSQVPKSITCINRLEISRIAPLHATMNSPKGFGPPPKKTKKSKKPKPGNQSDEDDDDEDEDDDDEEDERERGVIPEIVTNRMISRMGFTVGLPLFIGLLFFPFFYYLKVGLKVDVPTWVPFIVSFVFFGTALAGVSYGIVSSSWDPLREGSLLGWNEAKKNWPVFWQSFWNSSDKR
With B5, the binding entry in assay [6] is given as “binds”.

B6: LPA2-YFP^C (protein, UniProt F4KDA6 47-185)
chain: SKNSSSSGVGFGSPASSSSPAKKLSAATSGNKKGKGKREVNRRAPVEKPVFMSEEGAAKAEEQRQNENAFLLTWLGLGIVILIEGIILAASGFLPEELDKLFVKYVYPVFTPSVVLFVAGTTAYGVLKYIQNEKMKGQE
Turning to B6, the binding entry in assay [6] is “binds”.

B7: FtsY-YFP^C (protein, UniProt O80842 41-366)
chain: CSAGPSGFFTRLGRLIKEKAKSDVEKVFSGFSKTRENLAVIDELLLFWNLAETDRVLDELEEALLVSDFGPKITVRIVERLREDIMSGKLKSGSEIKDALKESVLEMLAKKNSKTELQLGFRKPAVIMIVGVNGGGKTTSLGKLAHRLKNEGTKVLMAAGDTFRAAASDQLEIWAERTGCEIVVAEGDKAKAATVLSKAVKRGKEEGYDVVLCDTSGRLHTNYSLMEELIACKKAVGKIVSGAPNEILLVLDGNTGLNMLPQAREFNEVVGITGLILTKLDGSARGGCVVSVVEELGIPVKFIGVGEAVEDLQPFDPEAFVNAIFS
As to B7, the binding result in assay [6] is on record as “binds”.

B8: LPA1-YFP^C (protein, UniProt Q9SRY4 93-453)
chain: DALVQFETALSLAPNPIESQAAYYNKACCHAYRGEGKKAVDCLRIALRDYNLKFATILNDPDLASFRALPEFKELQEEARLGGEDIGDNFRRDLKLISEVRAPFRGVRKFFYFAFAAAAGISMFFTVPRLVQAIRGGDGAPNLLETTGNAAINIGGIVVMVSLFLWENKKEEEQMVQITRDETLSRLPLRLSTNRVVELVQLRDTVRPVILAGKKETVTLAMQKADRFRTELLRRGVLLVPVVWGERKTPEIEKKGFGASSKAATSLPSIGEDFDTRAQSVVAQSKLKGEIRFKAETVSPGEWERWIRDQQISEGVNPGDDVYIILRLDGRVRRSGRGMPDWAEISKELPPMDDVLSKLER
As for B8, the binding entry in assay [6] was “binds”.

B9: cpSRP54-YFP^C (protein, UniProt P37107 76-564)
chain: EMFGQLTGGLEAAWSKLKGEEVLTKDNIAEPMRDIRRALLEADVSLPVVRRFVQSVSDQAVGMGVIRGVKPDQQLVKIVHDELVKLMGGEVSELQFAKSGPTVILLAGLQGVGKTTVCAKLACYLKKQGKSCMLIAGDVYRPAAIDQLVILGEQVGVPVYTAGTDVKPADIAKQGLKEAKKNNVDVVIMDTAGRLQIDKGMMDELKDVKKFLNPTEVLLVVDAMTGQEAAALVTTFNVEIGITGAILTKLDGDSRGGAALSVKEVSGKPIKLVGRGERMEDLEPFYPDRMAGRILGMGDVLSFVEKATEVMRQEDAEDLQKKIMSAKFDFNDFLKQTRAVAKMGSMTRVLGMIPGMGKVSPAQIREAEKNLLVMEAMIEVMTPEERERPELLAESPERRKRIAKDSGKTEQQVSALVAQIFQMRVKMKNLMGVMEGGSIPALSGLEDALKAEQKAPPGTARRKRKADSRKKFVESASSKPGPRGFGSGN
For the molecule B9, the binding entry in assay [6] is listed as “binds”.
